Assay: Cytotoxicity against human HepG2 cells measured after 72 hrs by hoechst 33342 staining based imaging assay
Type: toxicity, cell-based

Structure (SMILES): [2H]C([2H])([2H])N(C(=O)c1ncc(-c2ccc(Cl)cc2)o1)c1ccc(Cl)cc1
- CC50 at 72 h (read-out: CC50): > 10000 µM
- CC50 at 72 h (read-out: pCC50 (converted)): > 10 µM

Structure (SMILES): CN(C(=O)c1ncc(-c2ccc(Cl)cc2)o1)c1ccc(Cl)cc1
- CC50 at 72 h (read-out: CC50): > 10 µM
- CC50 at 72 h (read-out: pCC50 (converted)): > 10 µM

Structure (SMILES): CN(C(=O)c1cc(-c2ccc(Cl)cc2)ccn1)c1ccc(Cl)cc1
- CC50 at 72 h (read-out: CC50): > 10 µM
- CC50 at 72 h (read-out: pCC50 (converted)): > 10 µM

Structure (SMILES): [2H]C([2H])([2H])N(C(=O)c1cc(-c2ccc(Cl)cc2)ccn1)c1ccc(Cl)cc1
- CC50 at 72 h (read-out: CC50): > 10000 µM
- CC50 at 72 h (read-out: pCC50 (converted)): > 10 µM
